Experimental data published in patent US20120005782A1.
No constants are given. Whether binding was seen depends on the method and setting. Some entries that bind do so weakly or less than the wild type.

Amino acid sequences for entries named in this document (tags omitted). Residues count along the entry.
UniProt P00772, residues 27-266: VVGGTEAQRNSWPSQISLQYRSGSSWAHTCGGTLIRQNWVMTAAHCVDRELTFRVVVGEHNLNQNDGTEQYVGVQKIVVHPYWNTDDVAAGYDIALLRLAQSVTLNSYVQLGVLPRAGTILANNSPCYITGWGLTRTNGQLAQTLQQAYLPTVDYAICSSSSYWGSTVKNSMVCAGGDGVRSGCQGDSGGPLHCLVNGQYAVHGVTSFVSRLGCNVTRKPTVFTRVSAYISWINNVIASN
UniProt P01009, residues 25-418: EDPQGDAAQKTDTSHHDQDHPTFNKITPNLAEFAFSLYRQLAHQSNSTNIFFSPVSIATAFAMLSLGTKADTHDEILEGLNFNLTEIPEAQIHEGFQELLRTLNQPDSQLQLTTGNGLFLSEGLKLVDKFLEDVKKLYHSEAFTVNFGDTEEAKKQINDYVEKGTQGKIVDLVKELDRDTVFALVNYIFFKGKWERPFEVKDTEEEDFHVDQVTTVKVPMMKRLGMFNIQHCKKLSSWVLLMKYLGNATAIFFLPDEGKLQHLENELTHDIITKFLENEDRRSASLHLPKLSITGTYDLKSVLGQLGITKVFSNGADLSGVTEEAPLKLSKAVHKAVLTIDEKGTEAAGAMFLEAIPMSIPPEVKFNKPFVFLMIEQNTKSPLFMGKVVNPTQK

Experiments:
[1] = molecular target: porcine pancreatic elastase (PPE) (porcine) (UniProt P00772); experiment: functional AAT ELISA: AAT-PPE complex captured by anti-AAT and detected by anti-elastase-HRP; bioreactor culture supernatant
[2] = molecular target: porcine pancreatic elastase (PPE) (porcine) (UniProt P00772); experiment: band shift assay: leaf extract incubated with PPE, SDS-PAGE, anti-AAT immunoblot (FIG. 5B)
[3] = molecular target: porcine pancreatic elastase (PPE) (porcine) (UniProt P00772); experiment: band shift assay: leaf extract incubated with PPE, SDS-PAGE, anti-AAT immunoblot (FIG. 4B)

Measured: binding

recombinant α1-antitrypsin (rAAT) produced in Nicotiana benthamiana from the SPAAT gene (from UniProt P01009 25-418)
binds: [1] | [2] | [3]
